Laboratory results as given in publication PMC6214142.
For at least one entry, the source does not settle the construct or the ends of the probe. At least one result comes from cells or an extract, where the contact may be indirect. For part of these data: No signal at the amounts used counts as a negative.

Legend:
[1] = system: RUNX1 (uveal melanoma nuclear extract) (Homo sapiens); assay: competition with a labelled probe; details: EMSA: 10 mM Hepes pH 7.9, 10% glycerol, 0.1 mM EDTA, 0.5 mM DTT, 0.25 mM PMSF, 50 mM KCl, 2 ug poly(dI:dC), Tris-glycine gels at 4 C, protein in an extract, label: none (competitor)
[2] = system: RUNX1 (uveal melanoma nuclear extract) (Homo sapiens); assay: EMSA; details: T97, T108 (weak), T142, T143 extracts, self competition abolished (100-fold text, 500-fold legend); EMSA: 10 mM Hepes pH 7.9, 10% glycerol, 0.1 mM EDTA, 0.5 mM DTT, 0.25 mM PMSF, 50 mM KCl, 2 ug poly(dI:dC); Tris-glycine gels at 4 C; protein in an extract; label: 5' 32P as probe, unlabeled as competitor

What does the source list for “GATCGGCTAATTTATTTTTTTTTTTTTGTAGA / GATCTCTACAAAAAAAAAAAAATAAATTAGCC [RUNX1-mut]”?
binding result ([1]; probe N2, T143 extract, 100-fold excess): no binding; binding result ([1]; probe N5, 100-fold or 500-fold excess): no binding

Does “GATCGGCTAATTTATGTGGTTTTTTTTGTAGA / GATCTCTACAAAAAAAACCACATAAATTAGCC [HTR2B RUNX1 site oligonucleotide]” bind [2]?
Result: binds
